No constants are given. Whether binding was seen depends on the method and setting. Binding can be weak; no strength is given. Where a sequence is shown, tags or fusion partners need not be part of it.
Key:
[1] = molecular target: MBP-S6K with both VHL-like regions deleted (Drosophila); assay: pull-down; MBP-pulldown of MBP-tagged bait with GST-CCT4; pulldown buffer 20 mM Tris pH 7.5, 150 mM NaCl, 0.5 mM EDTA, 10% glycerol, 0.1% Triton X-100, 1 mM DTT; blots with anti-MBP and anti-GST; both purified
[2] = molecular target: MBP-S6K (Drosophila); assay: as above

binding [1]: binds
binding [2]: binds
B1: GST-CCT4 (protein, UniProt Q9VK69 1-533)
chain: MAPKAAAVNIKPTAKAFKDKSKPTDVRLSNIQAAKAVSDAIRTSLGPRGMDKMIQAGNGEVSITNDGATILKQMNVLHPAAKMLVELSRAQDVAAGDGTTSVVVIAGALLEACEKLLQKGLHPTAISDSFQRCSNKAVEILKQMSTPIELDDRETLIKSASTSLNSKVVSQQSSLLAPIAVDAVLKVTDPGKETSVDLKNIKVISSLGGTVEDTELVDGLVFTCRSAGSNAPKRIEKAKIGLIQFCISAPKTDMDHNVIVSDYAAMDRVLKEERSYILNIVKQIKKSGCNVLLVQKSILRDAVSDLAQHFLDKIKCMVVKDVEREDIEFVCKTLHCRPIASLDHFTAENLSSADLVEEVASGTNKFVKITGIQNMGRTVSIICRGSNKLVLEEAARSLHDALCVVRCLVKLRAQIVGGGAPEIEMALQLAALAQTVEGVDAYCFRAFADALEVIPSTLAENAGLNPIATVTELRNRHAQGEKNAGINVRKGAITDIFAENVVQPLLVSISSITLATETIRSILKIDDIVNTFS

From article PMC6756063, “TRiC/CCT chaperonins are essential for organ growth by interacting with insulin/TOR signaling in Drosophila” (Oncogene, 2019)
